{"source": "PubChem BioAssay AID493014", "about": "(National Center for Advancing Translational Sciences (NCATS), 2011)", "note": "Among all 340,000 compounds or so, about 170 (0.05%) were called active. Inconclusive means that the source gave no clear call. Such entries were picked first, then a sample of the others. The call rests on the fitted dose curve; in most records, active means well fitted inhibition curve with a large enough effect in the signal ratio, with a control signal flat (not every such curve was filed as active); inconclusive means small, poorly fitted or top-dose-only effect, or effect the other way, or a change in a side signal; inactive means flat fitted curve, though single readings scatter; the % refers to the signal ratio. Potencies of inconclusive entries are doubtful fits and often do not repeat. Potency means the concentration at half of the fitted maximal effect.", "data": [{"assay": "qHTS Assay to Find Inhibitors of Chronic Active B-Cell Receptor Signaling;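 on activity change, negative = inhibition: plate controls were basal doxycycline-induced cells for no effect and cells given 10 µM MG132 for full effect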", "conditions": "ABC-DLBCL IkBa-CBG/CBR reporter, luminescence ratio (green luciferase fused to IkBa over red control in TMD8 lymphoma cells), 4 h; activity change, negative = inhibition: at 46.1 µM (top of the series)", "how_it_was_run": "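TMD8 ABC-DLBCL cells carrying doxycycline-inducible green luciferase fused to IkappaBalpha plus unfused red luciferase were exposed to compounds (up to 46 uM) for 4 hrs at 37C. Activity came from the overlap-corrected green/red luminescence ratio.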", "values": [{"smiles": "CN1C(=O)C(C)(C)c2cc(S(=O)(=O)N3CCN(c4cccc(Cl)c4)CC3)ccc21", "Potency": "inconclusive: 11.2 µM [rising, single point]"}, {"smiles": "CCC(=O)OCCNc1nc(-c2ccccc2)nc2ccccc12", "Potency": "inconclusive: 25.1 µM [rising, single point]"}, {"smiles": "Cc1cc(C)c2nc(SC(C)C#N)cc(C)c2c1", "note": "(stereo not given)", "activity change, negative = inhibition": "inconclusive: 19.9%"}, {"smiles": "Oc1ccc(/C(Cc2ccccn2)=N\\Nc2ccccc2)c(O)c1", "Potency": "inconclusive: 3.16 µM [falling, single point]"}, {"smiles": "COc1cc(OC)c(C(=O)O/N=C(\\N)c2ccccn2)cc1OC", "activity change, negative = inhibition": "inactive"}, {"smiles": "CC(C)(C)C(=O)/C(=C/c1ccncc1)n1cncn1", "activity change, negative = inhibition": "inconclusive: 11.7%"}, {"smiles": "O=C(Nc1ccccc1F)c1ccc(S(=O)(=O)NCC2CCCO2)cc1", "note": "(stereo not given)", "activity change, negative = inhibition": "inconclusive: -2.46%"}, {"smiles": "COc1cc2c(cc1OC)/C(=C/C(=O)c1ccc(F)cc1)NCC2", "activity change, negative = inhibition": "inconclusive: 1.26%"}, {"smiles": "CCN1CCN(c2nc(-c3ccccc3)c3ccccc3n2)CC1", "activity change, negative = inhibition": "inconclusive: 1.03%"}, {"smiles": "COc1ccc(N(C(=O)c2cnccn2)C(C(=O)NCc2ccccc2)c2ccc(O)cc2)cc1", "note": "(stereo not given)", "activity change, negative = inhibition": "inactive"}, {"smiles": "Clc1ccc(CSc2snnc2-c2ccccc2)cc1", "Potency": "inconclusive: 20.6 µM [rising, single point]"}, {"smiles": "O=C(CCCc1cccs1)Nc1nc(-c2ccc(F)cc2)cs1", "activity change, negative = inhibition": "inconclusive: 11.1%"}, {"smiles": "CCOC(=O)CSCC(=O)N1N=C(c2cccs2)CC1c1ccc(F)cc1", "note": "(stereo not given)", "activity change, negative = inhibition": "inconclusive: -14.3%"}, {"smiles": "COc1cccc(C(=O)Nc2cc3c4c(c2)CC(=O)N4CCC3)c1", "Potency": "inconclusive: 20.6 µM [falling, partial curve]"}, {"smiles": "COc1ccc(/C=C/C(=O)NCCCn2ccnc2)cc1", "activity change, negative = inhibition": "inconclusive: 0.19%"}, {"smiles": "Cc1cccc(NC(=O)c2onc3c2CCCC3)n1", "Potency": "inconclusive: 29.1 µM [cytotoxic, single point]"}, {"smiles": "Cc1ccc(NC2=C/C(=N/S(=O)(=O)c3cccs3)c3ccccc3C2=O)cc1", "activity change, negative = inhibition": "inconclusive: -5.28%"}, {"smiles": "Cc1csc(NC(=S)Nc2cccc(Cl)c2)n1", "Potency": "inconclusive: 29.1 µM [cytotoxic, single point]"}, {"smiles": "COc1ccc(C(=O)Nc2ccc(Br)cc2F)cc1S(=O)(=O)N1CCCC1", "activity change, negative = inhibition": "inconclusive: 2.8%"}, {"smiles": "O=C1C2C(c3ccccc3)=NN(c3ccccc3)C2C(=O)N1c1ccccc1", "note": "(stereo not given)", "activity change, negative = inhibition": "inactive"}, {"smiles": "CCOC(=O)c1cc2c(ccn2-c2ccc(F)cc2)n1CC(=O)N(CC)CC", "activity change, negative = inhibition": "inconclusive: -8.24%"}, {"smiles": "CCOC(=O)c1ccc(NC(=O)c2nc[nH]c2C(=O)NCC(=O)OC(C)(C)C)cc1", "activity change, negative = inhibition": "inconclusive: 1.69%"}, {"smiles": "CCN1CCN(S(=O)(=O)c2ccc(C(=O)Nc3sc4c(c3C(N)=O)CCN(CC)C4)cc2)CC1", "Potency": "inconclusive: 11.2 µM [falling, partial curve, poor fit]"}, {"smiles": "NC(=O)NN=C1C2CCCC1C(c1ccccc1)NC2c1ccccc1", "note": "(stereo not given)", "activity change, negative = inhibition": "inconclusive: -17.3%"}, {"smiles": "c1ccc(-c2n[nH]c(-c3ccccn3)n2)cc1", "Potency": "inconclusive: 16.4 µM [falling, partial curve]"}, {"smiles": "CC(C)(C)OC(=O)NCCC(=O)N/N=C/c1ccc2nccnc2c1", "Potency": "inconclusive: 7.08 µM [falling, partial curve, poor fit]"}, {"smiles": "CC(C)Cc1nnc(NC(=O)C23CC4CC(CC(C4)C2)C3)s1", "activity change, negative = inhibition": "inactive"}, {"smiles": "CC1(C)CC(=O)C=C(NC2CCCCCCC2)C1", "Potency": "inconclusive: 29.1 µM [falling, single point]"}, {"smiles": "O=C(NCc1cccnc1)NC1(C(F)(F)F)Oc2ccccc2O1", "activity change, negative = inhibition": "inactive"}, {"smiles": "O=C(N/N=C/c1ccc(-n2ccnc2)cc1)c1cccs1", "Potency": "inconclusive: 17.8 µM [falling, partial curve]"}, {"smiles": "CCOc1ccc(CNC(=O)CCSCc2ccccc2F)cc1OC", "activity change, negative = inhibition": "inconclusive: -7.78%"}, {"smiles": "O=c1c2ccccc2nc(SCc2ccc([N+](=O)[O-])cc2)n1-c1ccccc1", "activity change, negative = inhibition": "inconclusive: 0.486%"}, {"smiles": "Cc1cc(N/C=C/C(=O)c2cccs2)ccc1F", "Potency": "inconclusive: 35.5 µM [falling, single point]"}, {"smiles": "COc1ccc2nc(N3CCCCC3)c(C#N)cc2c1", "activity change, negative = inhibition": "inconclusive: 2.56%"}, {"smiles": "C=CCOC(=O)C1=C(C)NC(C)=C(C(=O)OCC=C)C1c1ccco1", "activity change, negative = inhibition": "inactive"}, {"smiles": "Nc1nn(-c2ccccc2Cl)cc1-c1nn[nH]n1", "activity change, negative = inhibition": "inactive"}, {"smiles": "COc1ccc(C(C)=O)cc1COC(=O)CNC(=O)c1ccccc1F", "activity change, negative = inhibition": "inconclusive: 3.68%"}, {"smiles": "CCCCCCNc1cc2n(c(=O)n1)CCc1cc(OC)c(OC)cc1-2", "activity change, negative = inhibition": "inactive"}, {"smiles": "COCCNC(=S)N/N=C(\\C)c1ccc2cc(OC)ccc2c1", "Potency": "inconclusive: 1.84 µM [cytotoxic, partial curve, poor fit]"}, {"smiles": "CC(=O)Nc1ccc(O)c(-c2nc3ccccc3s2)c1", "activity change, negative = inhibition": "inconclusive: 6.82%"}, {"smiles": "Cc1[nH]c(=O)[nH]c(=O)c1S(=O)(=O)N1c2ccc(F)cc2CCC1C", "note": "(stereo not given)", "activity change, negative = inhibition": "inconclusive: 13.6%"}, {"smiles": "CC1(C)CC(=O)c2cc(C(=O)NCc3ccco3)c(=O)n(-c3ccc(Cl)cc3)c2C1", "activity change, negative = inhibition": "inconclusive: -8.56%"}, {"smiles": "Cc1ccc2nc(/C(C#N)=C\\c3cc(C)n(-c4cccc([N+](=O)[O-])c4)c3C)[nH]c2c1", "Potency": "inconclusive: 0.731 µM [rising, full curve, poor fit]"}, {"smiles": "CCOC(=O)c1cc(-c2cccs2)nc2c1c(C)nn2-c1ccccn1", "activity change, negative = inhibition": "inactive"}, {"smiles": "O=C1OCC(CO)(CO)N=C1NNc1ccc(Cl)c(Cl)c1", "activity change, negative = inhibition": "inconclusive: -20.2%"}, {"smiles": "COC(=O)Nc1ccc(SCC(=O)c2cccc([N+](=O)[O-])c2)cc1", "Potency": "inconclusive: 25.1 µM [falling, single point]"}, {"smiles": "O=C(c1ccccc1)N1CCN(C2CCCCC2)CC1", "activity change, negative = inhibition": "inconclusive: 5.19%"}, {"smiles": "COC(=O)/C(C#N)=C/c1c(Oc2cc(C)cc(C)c2)nc2ccccn2c1=O", "activity change, negative = inhibition": "inconclusive: 0.0952%"}, {"smiles": "CCN(CCCc1ccccc1)CCCc1ccccc1", "activity change, negative = inhibition": "inactive"}, {"smiles": "COc1ccccc1/C=C1\\C(=O)Nc2ccccc21", "Potency": "inconclusive: 20 µM [falling, partial curve]"}, {"smiles": "CCn1c2ccccc2c2cc(NC(=O)COC(=O)c3cc(OC)c(OC)cc3OC)ccc21", "Potency": "inconclusive: 11.6 µM [falling, partial curve, poor fit]"}, {"smiles": "COc1cc(OC)c(-c2nn3c(-c4ccco4)nnc3s2)cc1OC", "activity change, negative = inhibition": "inconclusive: -0.731%"}, {"smiles": "COc1ccccc1NC(=O)C[n+]1ccccc1", "activity change, negative = inhibition": "inconclusive: -19.9%"}, {"smiles": "Cc1c(C(=O)NC2CCCCC2)oc2ccc(F)cc12", "Potency": "inconclusive: 7.94 µM [falling, partial curve, poor fit]"}, {"smiles": "CN1CCOc2cc(S(=O)(=O)NCc3ccc(S(N)(=O)=O)cc3)ccc21", "activity change, negative = inhibition": "inactive"}, {"smiles": "N/C(=N\\OC(=O)c1ccccc1)c1ccn[nH]1", "Potency": "inconclusive: 25.1 µM [falling, single point]"}, {"smiles": "COc1ccc(C(=O)Oc2ccc(/C=N/Nc3ccc(Cl)c(C(=O)O)c3)cc2OC)cc1", "Potency": "inconclusive: 35.5 µM [rising, single point]"}, {"smiles": "Cc1nn(Cc2ccccc2)c(C)c1NC(=O)c1noc2c1CCc1ccccc1-2", "Potency": "inconclusive: 20.6 µM [falling, single point]"}, {"smiles": "CCCCc1ccc(NC(=S)Nc2cccnc2)cc1", "activity change, negative = inhibition": "inconclusive: 12.7%"}, {"smiles": "O=C1OCCN/C1=C\\C(=O)c1ccccc1", "activity change, negative = inhibition": "inconclusive: -0.707%"}, {"smiles": "CSc1ccc(/C=N/NC(=O)c2ccccc2Cl)cc1", "Potency": "inconclusive: 17.8 µM [falling, partial curve]"}, {"smiles": "CC1(C)CC(=O)C2=C(C1)Nc1ncnn1C2c1cccs1", "note": "(stereo not given)", "Potency": "inconclusive: 10 µM [rising, partial curve, poor fit]"}, {"smiles": "O=C(NCc1ccc2c(c1)OCO2)c1nc(Cn2cc(Br)cn2)no1", "activity change, negative = inhibition": "inactive"}, {"smiles": "CCOC(=O)C1C(=O)NC(N2CCCCC2)=NC1c1ccco1", "note": "(stereo not given)", "activity change, negative = inhibition": "inconclusive: 0.0209%"}, {"smiles": "Cn1nc([N+](=O)[O-])nc1Oc1ccccc1N", "Potency": "inconclusive: 20.6 µM [falling, partial curve]"}, {"smiles": "Cc1nc2nc(-c3ccco3)[nH]n2c(=O)c1Cc1ccccc1", "Potency": "inconclusive: 3.66 µM [falling, full curve]"}, {"smiles": "CCOC(=O)C(=CNc1cc(OC)ccc1-n1cccc1)C(=O)OCC", "activity change, negative = inhibition": "inconclusive: -1.55%"}, {"smiles": "COC(=O)c1c(NC(=O)c2nc3ccccc3s2)sc2c1CCN(C(C)=O)C2", "Potency": "inconclusive: 0.517 µM [falling, full curve]"}, {"smiles": "Cc1ccc(NC(=O)Cn2cnc([N+](=O)[O-])c2)cc1C", "Potency": "inconclusive: 35.5 µM [rising, single point]"}, {"smiles": "CSc1nc(O)cc(=O)n1-c1ccc(F)cc1", "activity change, negative = inhibition": "inconclusive: -8.46%"}, {"smiles": "COC(=O)COc1ccc(S(=O)(=O)N2CCOCC2)cc1C", "activity change, negative = inhibition": "inconclusive: 7.67%"}, {"smiles": "O=C(NC1CCCC1)c1cccc(S(=O)(=O)N2CCCCC2)c1", "activity change, negative = inhibition": "inactive"}, {"smiles": "COc1ccc(C(=O)Nc2ccc3oc(-c4ccc(F)cc4Cl)nc3c2)cc1", "Potency": "inconclusive: 1.12 µM [rising, full curve, poor fit]"}, {"smiles": "Cc1ccccc1NCC(=O)N/N=C/c1c(C)c(C(=O)c2ccc(Cl)cc2)n2ccccc12", "activity change, negative = inhibition": "inconclusive: -11%"}, {"smiles": "Cc1cc(C)nc(SC/C=C/c2ccccc2)n1", "activity change, negative = inhibition": "inconclusive: 5.89%"}, {"smiles": "Cc1ccc(-c2cn3c(=S)[nH]nc3s2)cc1", "activity change, negative = inhibition": "inactive"}, {"smiles": "O=C(CCNS(=O)(=O)c1ccc(Br)cc1)NNC(=O)C1COc2ccccc2O1", "note": "(stereo not given)", "activity change, negative = inhibition": "inactive"}, {"smiles": "O=C(/C=C/c1ccccc1)OCC(=O)c1c[nH]c2ccccc12", "activity change, negative = inhibition": "inconclusive: 3.42%"}, {"smiles": "O=C1CC(N2CCCc3ccccc32)C(=O)N1c1ccccc1Cl", "note": "(stereo not given)", "Potency": "inconclusive: 18.4 µM [falling, partial curve]"}, {"smiles": "COCCCNC(=O)CSC1=Nc2ccccc2C2=NC(Cc3c[nH]c4ccccc34)C(=O)N12", "note": "(stereo not given)", "activity change, negative = inhibition": "inconclusive: -8.53%"}]}]}
